The values below come from patent publication US20020146824.

The subject of this series is T1, PABF C-terminal fragment (lambda900 cDNA clone) (Nicotiana tabacum).
T1 sequence: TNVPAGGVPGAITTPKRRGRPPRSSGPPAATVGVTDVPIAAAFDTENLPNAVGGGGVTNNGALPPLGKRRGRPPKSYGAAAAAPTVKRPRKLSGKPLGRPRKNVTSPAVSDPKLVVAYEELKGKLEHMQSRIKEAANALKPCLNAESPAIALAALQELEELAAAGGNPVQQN
Kind of series: binding assay. The following applies: protein in a lysate after overexpression.

Results from cells or extracts need not show a direct contact. Negatives hold for the conditions tested. Where a protein sequence is shown, tags need not be part of it.

As to “TATATATATATATATATATATATATATATACCACGT (double strand)”, for the setting “plaque filter binding”, the binding result is recorded as “no binding”. On to “TGCAGGTGTTGCACGTGATACTCACCTACCCTGCA (double strand) [G-box]”, for which the binding result (plaque filter binding) is “no binding”.

As to “CTTGTCATTATTTCTCCACCACCCCCTTCACTTCCC (double strand)”, the binding result (plaque filter binding) is “no binding”. Still for that read-out and setting: next, “CGACTCACCTACCTGACATGCTACGCAGCG (double strand) [H-box]”: “no binding”; “CATAAGGATTAGGAATTTAATTTCGTAG (double strand) [PF]”: “no binding”. As to “AATTAATTAATTAATTAATTAATTAATTAATTAATTAATTAATTAATTAATT (double strand) [PAs (AATT)13]”, the binding result (filter binding, indistinguishable from PA) is reported as “binds”.
